Measurements published in patent publication US20180317488A1, “Use of Substituted Oxadiazoles for Combating Phytopathogenic Fungi” (BASF SE, priority 2015, published 2018).
Some results were stated once for a whole list of compounds, not compound by compound.

Legend:
Format in all cases: in vivo
Phakopsora pachyrhizi [1] = test: Use Example 3: protective control of soy bean rust on soy beans (glass house trial); conditions: 32 ppm; soy bean seedlings sprayed 2 days before inoculation; assessed after fourteen days; untreated plants 100%
Phakopsora pachyrhizi [2] = test: Use Example 2: curative control of soy bean rust on soy beans, sprayed after 24 h humid chamber plus 3 days cultivation (glass house trial); conditions: 32 ppm; soy bean seedlings sprayed after 24 h humid chamber and 3 days cultivation post inoculation; assessed after 14 days; untreated plants 100%
Puccinia recondita [3] = test: Use Example 5: curative control of brown rust on wheat (glass house trial); conditions: 63 ppm; wheat seedlings sprayed after 24 h humid chamber and 3 days cultivation post inoculation; assessed after 8 days; untreated plants 90%
Phakopsora pachyrhizi [4] = test: Use Example 1: curative control of soy bean rust on soy beans, sprayed the day after inoculation (glass house trial); conditions: 300 ppm; soy bean seedlings sprayed the day after inoculation; assessed after 14 days; untreated plants 90%
Puccinia recondita [5] = test: Use Example 4: preventative control of brown rust on wheat (glass house trial); conditions: 300 ppm; wheat seedlings sprayed the day before inoculation; assessed after 6 days; untreated plants 90%

Structure (SMILES) | diseased leaf area (Phakopsora pachyrhizi [1]) | diseased leaf area (Phakopsora pachyrhizi [2]) | diseased leaf area (Puccinia recondita [3]) | diseased leaf area (Phakopsora pachyrhizi [4]) | diseased leaf area (Puccinia recondita [5])
CN(C)NC(=O)c1ccc(-c2noc(C(F)(F)F)n2)cc1 [Ex-1, N′,N′dimethyl-4-[5-(trifluoromethyl)-1,2,4-oxadiazol-3-yl]benzohydrazide] | at most 10% | at most 10% | at most 5% |  | 
CNNC(=O)c1ccc(-c2noc(C(F)(F)F)n2)cc1 [Ex-2] | at most 10% |  |  |  | 
CN(NC(=O)c1ccc(-c2noc(C(F)(F)F)n2)cc1)c1ccccc1 [Ex-3] | at most 10% |  |  |  | 
O=C(NNc1ccccc1)c1ccc(-c2noc(C(F)(F)F)n2)cc1 [Ex-4] | at most 10% |  |  |  | 
Cc1cccc(NNC(=O)c2ccc(-c3noc(C(F)(F)F)n3)cc2)c1 [Ex-5] |  |  |  | at most 15% | 
O=C(NNC(=O)c1ccc(-c2noc(C(F)(F)F)n2)cc1)c1ccccc1 [Ex-6] | at most 10% |  |  | at most 15% | at most 20%
O=C(NNCc1ccccc1)c1ccc(-c2noc(C(F)(F)F)n2)cc1 [Ex-7] | at most 10% |  |  |  | 
CC(=O)NNC(=O)c1ccc(-c2noc(C(F)(F)F)n2)cc1 [Ex-8] | at most 10% |  |  |  | 
NN(C(=O)c1ccc(-c2noc(C(F)(F)F)n2)cc1)c1ccccc1 [Ex-9] | at most 10% |  |  |  | 
CN(C)N(C)C(=O)c1ccc(-c2noc(C(F)(F)F)n2)cc1 [Ex-10] | at most 10% | at most 10% |  |  | 
CNN(C)C(=O)c1ccc(-c2noc(C(F)(F)F)n2)cc1 [Ex-11] | at most 10% | at most 10% |  |  | 
O=C(NNC1CC1)c1ccc(-c2noc(C(F)(F)F)n2)cc1 [Ex-12] | at most 10% | at most 10% |  |  | 
Cc1ccsc1C(=O)NNC(=O)c1ccc(-c2noc(C(F)(F)F)n2)cc1 [Ex-14] |  |  |  | at most 15% | 
O=C(NN1CCCCC1=O)c1ccc(-c2noc(C(F)(F)F)n2)cc1 [Ex-15] | at most 10% |  |  | at most 15% | 
O=C(NN1CCOCC1)c1ccc(-c2noc(C(F)(F)F)n2)cc1 [Ex-16] | at most 10% | at most 10% |  | at most 15% | at most 20%
O=C(NN1CCCOC1=O)c1ccc(-c2noc(C(F)(F)F)n2)cc1 [Ex-17] | at most 10% | at most 10% |  | at most 15% | 
O=C(NN1C(=O)CNC1=O)c1ccc(-c2noc(C(F)(F)F)n2)cc1 [Ex-19] | at most 10% |  |  |  | 
O=C(NN1CCCC1=O)c1ccc(-c2noc(C(F)(F)F)n2)cc1 [Ex-20] | at most 10% | at most 10% |  |  | 
O=C(NN1CCNC1=O)c1ccc(-c2noc(C(F)(F)F)n2)cc1 [Ex-21] | at most 10% |  |  |  | 
CC(=O)NNC(=O)c1ccc(-c2noc(C(F)(F)F)n2)s1 [Ex-23] | at most 10% | at most 10% |  |  | 
CNN(C)C(=O)c1ccc(-c2noc(C(F)(F)F)n2)s1 [Ex-24] | at most 10% | at most 10% |  |  | 
CN(NC(=O)c1ccc(-c2noc(C(F)(F)F)n2)s1)c1ccccc1 [Ex-25] | at most 10% |  |  |  | 
CN(N)C(=O)c1ccc(-c2noc(C(F)(F)F)n2)s1 [Ex-27] | at most 10% |  |  |  | 
CN(C)NC(=O)c1ccc(-c2noc(C(F)(F)F)n2)s1 [Ex-28] | at most 10% | at most 10% | at most 5% |  | 
CN(C)N(C)C(=O)c1ccc(-c2noc(C(F)(F)F)n2)s1 [Ex-29] | at most 10% | at most 10% |  |  | 
